No constants are given. Whether binding was seen depends on the method and setting. Some binding calls cover weakened binding; strength is not graded here. Tags and fused reporters may be left off the sequences shown.
Legend:
[1] = biological target: T1, recombinant Qa1 protein (Qa1-His) (mouse) (UniProt P06339); experiment: sandwich ELISA, Qa1-His captured by coated anti-mouse Qa1 antibody, goat anti-mCD48 detection (FIG. 36)
T1 sequence (MHC heavy, looked up): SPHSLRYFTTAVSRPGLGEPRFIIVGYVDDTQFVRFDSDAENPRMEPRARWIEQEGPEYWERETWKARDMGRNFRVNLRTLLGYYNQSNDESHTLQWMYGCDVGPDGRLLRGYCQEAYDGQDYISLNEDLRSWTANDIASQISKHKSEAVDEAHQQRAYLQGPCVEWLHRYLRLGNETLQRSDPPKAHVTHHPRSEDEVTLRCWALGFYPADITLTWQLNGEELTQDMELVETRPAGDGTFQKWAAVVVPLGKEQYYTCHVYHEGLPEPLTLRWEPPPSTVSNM

Sequences of proteins named here, by UniProt entry; tags and fusion partners are left off. Residues count along the entry.
UniProt P13747, residues 22-305: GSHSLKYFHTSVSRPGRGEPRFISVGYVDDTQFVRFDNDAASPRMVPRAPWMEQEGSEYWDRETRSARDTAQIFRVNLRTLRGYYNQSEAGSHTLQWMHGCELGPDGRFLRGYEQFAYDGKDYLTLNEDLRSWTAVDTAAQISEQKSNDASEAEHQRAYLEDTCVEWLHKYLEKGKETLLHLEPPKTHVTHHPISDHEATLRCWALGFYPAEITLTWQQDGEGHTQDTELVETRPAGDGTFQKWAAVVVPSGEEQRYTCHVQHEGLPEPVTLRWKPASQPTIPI
UniProt P09793, residues 36-162: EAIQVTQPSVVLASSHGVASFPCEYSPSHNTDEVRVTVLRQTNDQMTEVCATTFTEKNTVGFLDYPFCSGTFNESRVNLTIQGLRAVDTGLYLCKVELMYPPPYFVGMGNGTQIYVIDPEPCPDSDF
UniProt P04202, residues 279-390: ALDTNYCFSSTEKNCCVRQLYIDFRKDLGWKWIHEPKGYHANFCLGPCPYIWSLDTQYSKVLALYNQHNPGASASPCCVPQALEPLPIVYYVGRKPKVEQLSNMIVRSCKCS

[2] = biological target: T1, recombinant Qa1 protein (Qa1-His) (mouse); experiment: sandwich ELISA, Qa1 captured by coated anti-mouse Qa1 antibody, anti-mCD48 detection (FIG. 36)
[3] = biological target: HLA class I histocompatibility antigen, alpha chain E (HLA-E), plate-bound recombinant protein (human) (UniProt P13747); experiment: ELISA, plate-bound HLA-E, anti-mCD48 antibody and anti-goat HRP (FIG. 7B)
[4] = biological target: T1, recombinant Qa1 protein (Qa1-His) (mouse); experiment: sandwich ELISA; coat Anti-mouse Qa-1, primary Qa-1-His, mCD48-Fc-NKG2a titrated, secondary Anti-mCD48, Donkey Anti-Goat IgG HRP
[5] = biological target: mCD28 expressed on CHO-K1/mCD28 cells (mouse) (UniProt P31041); experiment: flow cytometry cell binding assay, detection Anti-mFc-APC 1:100
[6] = biological target: mCD28 expressed on CHO-K1/mCD28 cells (mouse) (UniProt P31041); experiment: flow cytometry, CHO-K1/mCD28 against WT CHO-K1 (FIG. 67, 68)
[7] = biological target: T2, mCD28, plate-bound (mouse) (UniProt P31041); experiment: ELISA, plate-bound mCD28 (FIG. 5C)
T2 sequence (looked up): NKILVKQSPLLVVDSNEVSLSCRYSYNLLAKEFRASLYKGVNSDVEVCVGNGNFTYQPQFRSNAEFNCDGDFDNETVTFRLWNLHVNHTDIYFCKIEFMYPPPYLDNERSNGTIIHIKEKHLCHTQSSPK

[8] = biological target: mCTLA-4, plate-bound (mouse) (UniProt P09793); experiment: ELISA, plate-bound mCTLA-4, anti-mouse Fc HRP (FIG. 5D)
[9] = biological target: T2, mCD28, plate-bound (mouse); experiment: ELISA, plate-bound mCD28, anti-mouse Fc HRP (FIG. 5C)
[10] = biological target: HLA class I histocompatibility antigen, alpha chain E (HLA-E), plate-bound recombinant protein (human) (UniProt P13747); experiment: ELISA, plate-bound HLA-E, anti-mouse Fc HRP (FIG. 5B)
[11] = biological target: mCTLA-4, plate-bound (mouse) (UniProt P09793); experiment: ELISA, plate-bound mCTLA-4 (FIG. 5D)
[12] = biological target: mCD28 expressed on CHO-K1/mCD28 cells (mouse) (UniProt P31041); experiment: flow cytometry (FIG. 67)
[13] = biological target: mCD28 expressed on CHO-K1/mCD28 cells (mouse) (UniProt P31041); experiment: flow cytometry on CHO-K1/mCD28 cells (mCD28-c16), APC-A, dose series (doses not given)
mCD28-Fc (mouse) [14] = biological target: T3, mCD28-Fc (mouse) (UniProt P31041); experiment: ELISA, recombinant mouse CD28 coated, anti-mouse Fc HRP (FIG. 33)
T3 sequence (looked up): T2 sequence (looked up)

[15] = biological target: recombinant HLA-E-His protein (human) (UniProt P13747); experiment: dual ELISA; coat HLA-E-His, mCD86-fc-NKG2a titrated, detection Anti-mCD86, Anti-Rat-HRP
[16] = biological target: mCTLA-4, plate-bound (mouse) (UniProt P09793); experiment: ELISA, plate-bound mCTLA-4, anti-mouse Fc HRP (FIG. 3C)
[17] = biological target: recombinant HLA-E-His protein (human) (UniProt P13747); experiment: sandwich ELISA, HLA-E-His coated, rat anti-mCD86 detection (FIG. 37)
mCD28-Fc (mouse) [18] = biological target: T3, mCD28-Fc (mouse); experiment: ELISA: coat mCD28-Fc (Acro), detection Anti-mFc-HRP
[19] = biological target: mCD28 expressed on CHO-K1/mCD28 cells (mouse) (UniProt P31041); experiment: flow cytometry, CHO-K1/mCD28 against WT CHO-K1 (FIG. 69, 70)
[20] = biological target: recombinant HLA-E-His protein (human) (UniProt P13747); experiment: sandwich ELISA, HLA-E-His coated, anti-mCD86 detection (FIG. 37)
[21] = biological target: mCD28 expressed on CHO-K1/mCD28 cells (mouse) (UniProt P31041); experiment: flow cytometry on CHO-K1/mCD28 cells (mCD28-C16), APC-A, dose series (doses not given)
mCD28-Fc (mouse) [22] = biological target: T3, mCD28-Fc (mouse); experiment: ELISA, mCD28-Fc coated (FIG. 33)
[23] = biological target: HLA class I histocompatibility antigen, alpha chain E (HLA-E), plate-bound recombinant protein (human) (UniProt P13747); experiment: ELISA, plate-bound HLA-E (FIG. 7B)
[24] = biological target: HLA class I histocompatibility antigen, alpha chain E (HLA-E), plate-bound recombinant protein (human) (UniProt P13747); experiment: ELISA, plate-bound HLA-E, anti-mouse Fc HRP (FIG. 3B)
[25] = biological target: mCD28 expressed on CHO-K1/mCD28 cells (mouse) (UniProt P31041); experiment: flow cytometry (FIG. 69)
[26] = biological target: mTGFβ1, recombinant, plate-bound (mouse) (UniProt P04202); experiment: ELISA: coat mTGFB1 (R+D 7666-MB), detection Anti-mFc-HRP
[27] = biological target: mTGFβ1, recombinant, plate-bound (mouse) (UniProt P04202); experiment: ELISA, mTGFβ1 coated (FIG. 30)
[28] = biological target: mTGFβ1, recombinant, plate-bound (mouse) (UniProt P04202); experiment: ELISA, recombinant TGFβ1 coated, anti-mFc HRP (FIG. 30)

Measured: binding

B1: mouse CD48-Fc-NKG2A chimeric protein (Fc fusion)
chain: FQGHSIPDINATTGSNVTLKIHKDPLGPYKRITWLHTKNQKILEYNYNSTKTIFESEFKGRVYLEENNGALHISNVRKEDKGTYYMRVLRETENELKITLEVFDPVPKPSIEINKTEASTDSCHLRLSCEVKDQHVDYTWYESSGPFPKKSPGYVLDLIVTPQNKSTFYTCQVSNPVSSKNDTVYFTLPCDLARSVPRDCGCKPCICTVPEVSSVFIFPPKPKDVLTITLTPKVTCVVVDISKDDPEVQFSWFVDDVEVHTAQTQPREEQFNSTFRSVSELPIMHQDWLNGKEFKCRVNSAAFPAPIEKTISKTKGRPKAPQVYTIPPPKEQMAKDKVSLTCMITDFFPEDITVEWQWNGQPAENYKNTQPIMDTDGSYFVYSKLNVQKSNWEAGNTFTCSVLHEGLHNHHTEKSLSHSPGIIEGRMDTPYTEAKAQINSSMTRTHRDINYTLSSAQPCPHCPKEWISYSHNCYFIGMERKSWNDSLVSCISKNCSLLYIDSEEEQDFLQSLSLISWTGILRKGRGQPWVWKEDSIFKPKIAEILHDECNCAMMSASGLTADNCTTLHPYLCKCKFPI
binds: [1] | [2] | [3] | [4]

B2: mouse CD80-Fc-NKG2A chimeric protein (Fc fusion)
chain: VDEQLSKSVKDKVLLPCRYNSPHEDESEDRIYWQKHDKVVLSVIAGKLKVWPEYKNRTLYDNTTYSLIILGLVLSDRGTYSCVVQKKERGTYEVKHLALVKLSIKADFSTPNITESGNPSADTKRITCFASGGFPKPRFSWLENGRELPGINTTISQDPESELYTISSQLDFNTTRNHTIKCLIKYGDAHVSEDFTWEKPPEDPPDSKNVPRDCGCKPCICTVPEVSSVFIFPPKPKDVLTITLTPKVTCVVVDISKDDPEVQFSWFVDDVEVHTAQTQPREEQFNSTFRSVSELPIMHQDWLNGKEFKCRVNSAAFPAPIEKTISKTKGRPKAPQVYTIPPPKEQMAKDKVSLTCMITDFFPEDITVEWQWNGQPAENYKNTQPIMDTDGSYFVYSKLNVQKSNWEAGNTFTCSVLHEGLHNHHTEKSLSHSPGIIEGRMDTPYTEAKAQINSSMTRTHRDINYTLSSAQPCPHCPKEWISYSHNCYFIGMERKSWNDSLVSCISKNCSLLYIDSEEEQDFLQSLSLISWTGILRKGRGQPWVWKEDSIFKPKIAEILHDECNCAMMSASGLTADNCTTLHPYLCKCKFPI
binds: [5] | [6] | [7] | [8] | [9] | [10] | [11] | [12] | [13] | mCD28-Fc (mouse) [14]

B3: mouse CD86-Fc-NKG2A chimeric protein (Fc fusion)
chain: VSVETQAYFNGTAYLPCPFTKAQNISLSELVVFWQDQQKLVLYEHYLGTEKLDSVNAKYLGRTSFDRNNWTLRLHNVQIKDMGSYDCFIQKKPPTGSIILQQTLTELSVIANFSEPEIKLAQNVTGNSGINLTCTSKQGHPKPKKMYFLITNSTNEYGDNMQISQDNVTELFSISNSLSLSFPDGVWHMTVVCVLETESMKISSKPLNFTQEFPSPQTYWKVPRDCGCKPCICTVPEVSSVFIFPPKPKDVLTITLTPKVTCVVVDISKDDPEVQFSWFVDDVEVHTAQTQPREEQFNSTFRSVSELPIMHQDWLNGKEFKCRVNSAAFPAPIEKTISKTKGRPKAPQVYTIPPPKEQMAKDKVSLTCMITDFFPEDITVEWQWNGQPAENYKNTQPIMDTDGSYFVYSKLNVQKSNWEAGNTFTCSVLHEGLHNHHTEKSLSHSPGIIEGRMDTPYTEAKAQINSSMTRTHRDINYTLSSAQPCPHCPKEWISYSHNCYFIGMERKSWNDSLVSCISKNCSLLYIDSEEEQDFLQSLSLISWTGILRKGRGQPWVWKEDSIFKPKIAEILHDECNCAMMSASGLTADNCTTLHPYLCKCKFPI
binds: [5] | [15] | [16] | [17] | mCD28-Fc (mouse) [18] | [19] | [20] | [21] | mCD28-Fc (mouse) [22] | [23] | [24] | [25]

B4: mouse TGFBR2-Fc-NKG2A chimeric protein (Fc fusion)
chain: IPPHVPKSDVEMEAQKDASIHLSCNRTIHPLKHFNSDVMASDNGGAVKLPQLCKFCDVRLSTCDNQKSCMSNCSITAICEKPHEVCVAVWRKNDKNITLETVCHDPKLTYHGFTLEDAASPKCVMKEKKRAGETFFMCACNMEECNDYIIFSEEYTTSSPDVPRDCGCKPCICTVPEVSSVFIFPPKPKDVLTITLTPKVTCVVVDISKDDPEVQFSWFVDDVEVHTAQTQPREEQFNSTFRSVSELPIMHQDWLNGKEFKCRVNSAAFPAPIEKTISKTKGRPKAPQVYTIPPPKEQMAKDKVSLTCMITDFFPEDITVEWQWNGQPAENYKNTQPIMDTDGSYFVYSKLNVQKSNWEAGNTFTCSVLHEGLHNHHTEKSLSHSPGIIEGRMDTPYTEAKAQINSSMTRTHRDINYTLSSAQPCPHCPKEWISYSHNCYFIGMERKSWNDSLVSCISKNCSLLYIDSEEEQDFLQSLSLISWTGILRKGRGQPWVWKEDSIFKPKIAEILHDECNCAMMSASGLTADNCTTLHPYLCKCKFPI
binds: [26] | [27] | [28]

Source: patent US20200399344A1
